# Measurements reported in PMC8115599, “Mechanism of MRX inhibition by Rif2 at telomeres” (Nature Communications, 2021).
# Chains of the proteins cited; added tags and fusions are not shown. Lines headed by an entry give the natural chain unless they say otherwise; changes in a name come on top.
# UniProt P12753: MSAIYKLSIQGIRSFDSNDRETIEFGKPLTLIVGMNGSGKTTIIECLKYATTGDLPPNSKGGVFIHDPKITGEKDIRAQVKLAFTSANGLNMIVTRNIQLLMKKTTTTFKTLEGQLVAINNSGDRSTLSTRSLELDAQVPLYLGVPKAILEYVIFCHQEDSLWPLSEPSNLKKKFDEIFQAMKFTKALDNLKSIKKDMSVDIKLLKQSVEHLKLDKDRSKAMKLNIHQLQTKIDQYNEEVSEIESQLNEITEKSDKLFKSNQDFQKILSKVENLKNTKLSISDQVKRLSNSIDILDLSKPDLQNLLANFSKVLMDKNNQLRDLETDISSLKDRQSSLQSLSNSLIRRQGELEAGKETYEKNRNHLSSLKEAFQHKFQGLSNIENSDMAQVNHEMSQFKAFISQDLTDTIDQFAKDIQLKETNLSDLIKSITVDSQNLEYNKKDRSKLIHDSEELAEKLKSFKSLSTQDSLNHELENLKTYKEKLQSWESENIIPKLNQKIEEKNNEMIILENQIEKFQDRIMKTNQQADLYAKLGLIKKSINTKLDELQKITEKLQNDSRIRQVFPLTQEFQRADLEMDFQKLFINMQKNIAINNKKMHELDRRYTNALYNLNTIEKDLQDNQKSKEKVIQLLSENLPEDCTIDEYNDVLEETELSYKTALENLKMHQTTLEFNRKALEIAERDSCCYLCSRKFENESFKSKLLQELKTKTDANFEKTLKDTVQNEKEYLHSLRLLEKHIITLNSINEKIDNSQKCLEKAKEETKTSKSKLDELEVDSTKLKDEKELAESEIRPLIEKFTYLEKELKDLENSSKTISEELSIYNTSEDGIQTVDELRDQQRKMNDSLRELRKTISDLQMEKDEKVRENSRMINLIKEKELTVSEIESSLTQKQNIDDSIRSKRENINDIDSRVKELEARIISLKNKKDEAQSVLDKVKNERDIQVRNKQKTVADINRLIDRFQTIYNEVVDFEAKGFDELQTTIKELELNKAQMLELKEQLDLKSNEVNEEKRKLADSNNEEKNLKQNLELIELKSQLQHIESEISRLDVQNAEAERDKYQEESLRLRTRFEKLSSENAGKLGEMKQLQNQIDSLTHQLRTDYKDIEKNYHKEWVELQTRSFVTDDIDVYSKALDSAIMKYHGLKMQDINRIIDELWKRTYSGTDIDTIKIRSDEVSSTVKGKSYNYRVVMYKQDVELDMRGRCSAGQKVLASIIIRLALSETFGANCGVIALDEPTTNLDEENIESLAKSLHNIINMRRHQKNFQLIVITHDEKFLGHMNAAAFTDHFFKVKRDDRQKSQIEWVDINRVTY
# Target: T1, Gal4DBD-Rif2_(1-36) (Rif2 BAT motif) (S. cerevisiae) (UniProt Q06208)
# T1 sequence: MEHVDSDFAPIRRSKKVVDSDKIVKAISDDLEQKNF
# Experiment: two-hybrid; strain Y190, growth on synthetic glucose plates with adenine and 3-AT (25 and 50 mM); Gal4DBD-Rif2 fragments against pACT2-RAD50 and its derivatives, Rap1 366-827 or Mre11; WT cells, also cells lacking Mre11 and Xrs2 or the endogenous Rad50
row,Substance,binding
1,"mutant full-length Rad50, mutation at position K6 (from UniProt P12753)",no binding
2,"mutant full-length Rad50, mutation at position K81 (from UniProt P12753)",no binding
3,"mutant full-length Rad50, mutation at position Q79 (from UniProt P12753)",binds

# Next, values leading:
row,binding,Substance
1,no binding,"mutant full-length Rad50, mutation at position I93 (from UniProt P12753)"
2,binds,"mutant full-length Rad50, mutation at position N97 (from UniProt P12753)"
3,binds,"mutant full-length Rad50, mutation at position Q115 (from UniProt P12753)"

# Results are given in words; binding and its absence hold for the method and conditions named. A result given as binding can be weak or reduced; the word gives no strength.
